Chains of the proteins cited; added tags and fusions are not shown.
UniProt Q8IWV8: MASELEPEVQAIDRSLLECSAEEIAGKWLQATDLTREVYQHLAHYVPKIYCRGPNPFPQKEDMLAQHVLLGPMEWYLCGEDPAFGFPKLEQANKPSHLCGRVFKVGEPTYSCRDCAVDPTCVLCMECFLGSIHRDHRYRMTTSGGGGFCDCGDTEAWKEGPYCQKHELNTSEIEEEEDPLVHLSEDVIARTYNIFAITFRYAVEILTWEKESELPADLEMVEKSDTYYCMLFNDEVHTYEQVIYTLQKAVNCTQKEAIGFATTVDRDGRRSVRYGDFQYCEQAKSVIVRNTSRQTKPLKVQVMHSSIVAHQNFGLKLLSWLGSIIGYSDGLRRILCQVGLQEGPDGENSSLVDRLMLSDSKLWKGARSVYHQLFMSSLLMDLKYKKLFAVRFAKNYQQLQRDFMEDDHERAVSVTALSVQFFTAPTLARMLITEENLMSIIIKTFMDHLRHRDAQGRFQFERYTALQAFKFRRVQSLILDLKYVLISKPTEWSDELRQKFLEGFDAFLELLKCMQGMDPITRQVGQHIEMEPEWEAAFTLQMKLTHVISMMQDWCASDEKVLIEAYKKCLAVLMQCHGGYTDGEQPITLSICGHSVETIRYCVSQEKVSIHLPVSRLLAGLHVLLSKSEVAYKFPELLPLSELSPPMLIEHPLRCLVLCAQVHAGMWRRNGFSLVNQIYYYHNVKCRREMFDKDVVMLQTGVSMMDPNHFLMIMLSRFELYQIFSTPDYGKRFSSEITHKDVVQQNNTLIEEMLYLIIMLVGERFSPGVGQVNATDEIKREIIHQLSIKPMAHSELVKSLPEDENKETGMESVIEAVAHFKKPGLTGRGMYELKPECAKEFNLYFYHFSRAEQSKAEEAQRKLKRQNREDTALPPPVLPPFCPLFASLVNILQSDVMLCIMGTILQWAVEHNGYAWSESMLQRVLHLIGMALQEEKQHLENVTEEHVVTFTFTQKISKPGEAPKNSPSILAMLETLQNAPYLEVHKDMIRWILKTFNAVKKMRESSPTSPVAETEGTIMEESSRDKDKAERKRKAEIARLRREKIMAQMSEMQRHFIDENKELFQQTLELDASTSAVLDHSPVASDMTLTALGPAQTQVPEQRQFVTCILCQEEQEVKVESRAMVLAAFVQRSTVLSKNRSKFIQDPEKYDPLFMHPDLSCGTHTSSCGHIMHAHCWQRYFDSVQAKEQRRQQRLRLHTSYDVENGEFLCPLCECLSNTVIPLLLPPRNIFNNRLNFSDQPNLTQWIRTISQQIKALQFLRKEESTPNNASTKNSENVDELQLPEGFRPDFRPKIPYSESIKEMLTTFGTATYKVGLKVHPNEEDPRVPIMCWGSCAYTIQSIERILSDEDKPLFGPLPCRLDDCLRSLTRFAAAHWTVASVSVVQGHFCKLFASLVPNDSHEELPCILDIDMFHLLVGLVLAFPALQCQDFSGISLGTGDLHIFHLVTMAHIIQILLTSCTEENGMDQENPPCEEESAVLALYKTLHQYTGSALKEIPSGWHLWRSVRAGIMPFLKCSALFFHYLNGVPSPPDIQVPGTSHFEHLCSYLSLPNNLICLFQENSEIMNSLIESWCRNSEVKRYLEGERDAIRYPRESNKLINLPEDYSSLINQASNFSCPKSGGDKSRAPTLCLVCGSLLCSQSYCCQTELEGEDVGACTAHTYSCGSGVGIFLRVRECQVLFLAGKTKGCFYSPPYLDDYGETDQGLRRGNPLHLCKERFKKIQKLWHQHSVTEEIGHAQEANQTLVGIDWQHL

In paper doi:10.1101/102285:

Target: T1, TEX19.1-YFP (mouse) (UniProt Q99MV2)
T1 sequence: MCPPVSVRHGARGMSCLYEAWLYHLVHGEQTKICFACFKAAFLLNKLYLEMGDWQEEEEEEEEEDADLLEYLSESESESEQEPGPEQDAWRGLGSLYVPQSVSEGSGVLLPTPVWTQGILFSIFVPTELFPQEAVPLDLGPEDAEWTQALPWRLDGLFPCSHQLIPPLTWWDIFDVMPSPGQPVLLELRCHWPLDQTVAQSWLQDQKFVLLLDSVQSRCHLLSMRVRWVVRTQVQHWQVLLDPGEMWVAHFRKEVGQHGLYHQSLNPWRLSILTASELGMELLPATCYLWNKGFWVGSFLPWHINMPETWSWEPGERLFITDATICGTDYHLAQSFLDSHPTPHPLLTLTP
Assay: affinity purification with mass spectrometry

binding: binds
Substance: E3 ubiquitin ligase UBR2 (endogenous) (from UniProt Q8IWV8 1-1755) (enzyme)

Results are given in words; binding and its absence hold for the method and conditions named. In cells and extracts the contact can be indirect. These calls come from enrichment with a bait or labelling near it, and not all partners need be listed. Sequences can lack the tags named with a protein.
